Paper doi:10.1101/792994
No constants are given. Whether binding was seen depends on the method and setting. Binding seen in cells or lysates may run through a third protein. Some binding calls cover weakened binding; strength is not graded here. Where a sequence is shown, tags or fusion partners need not be part of it. Values belong to the molecule of their own block, whether it stands above or below them.

Chains of the proteins cited; added tags and fusions are not shown.
UniProt O60573: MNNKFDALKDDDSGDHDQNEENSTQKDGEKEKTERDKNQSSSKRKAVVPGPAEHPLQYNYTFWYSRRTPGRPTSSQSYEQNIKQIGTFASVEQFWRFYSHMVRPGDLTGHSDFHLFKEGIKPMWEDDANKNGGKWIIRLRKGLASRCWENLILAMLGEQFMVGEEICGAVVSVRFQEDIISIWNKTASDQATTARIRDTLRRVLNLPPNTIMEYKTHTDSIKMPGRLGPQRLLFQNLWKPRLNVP

Molecular target: T1, GIGYF2, endogenously tagged with GFP11 (human) (UniProt Q6Y7W6)
T1 sequence: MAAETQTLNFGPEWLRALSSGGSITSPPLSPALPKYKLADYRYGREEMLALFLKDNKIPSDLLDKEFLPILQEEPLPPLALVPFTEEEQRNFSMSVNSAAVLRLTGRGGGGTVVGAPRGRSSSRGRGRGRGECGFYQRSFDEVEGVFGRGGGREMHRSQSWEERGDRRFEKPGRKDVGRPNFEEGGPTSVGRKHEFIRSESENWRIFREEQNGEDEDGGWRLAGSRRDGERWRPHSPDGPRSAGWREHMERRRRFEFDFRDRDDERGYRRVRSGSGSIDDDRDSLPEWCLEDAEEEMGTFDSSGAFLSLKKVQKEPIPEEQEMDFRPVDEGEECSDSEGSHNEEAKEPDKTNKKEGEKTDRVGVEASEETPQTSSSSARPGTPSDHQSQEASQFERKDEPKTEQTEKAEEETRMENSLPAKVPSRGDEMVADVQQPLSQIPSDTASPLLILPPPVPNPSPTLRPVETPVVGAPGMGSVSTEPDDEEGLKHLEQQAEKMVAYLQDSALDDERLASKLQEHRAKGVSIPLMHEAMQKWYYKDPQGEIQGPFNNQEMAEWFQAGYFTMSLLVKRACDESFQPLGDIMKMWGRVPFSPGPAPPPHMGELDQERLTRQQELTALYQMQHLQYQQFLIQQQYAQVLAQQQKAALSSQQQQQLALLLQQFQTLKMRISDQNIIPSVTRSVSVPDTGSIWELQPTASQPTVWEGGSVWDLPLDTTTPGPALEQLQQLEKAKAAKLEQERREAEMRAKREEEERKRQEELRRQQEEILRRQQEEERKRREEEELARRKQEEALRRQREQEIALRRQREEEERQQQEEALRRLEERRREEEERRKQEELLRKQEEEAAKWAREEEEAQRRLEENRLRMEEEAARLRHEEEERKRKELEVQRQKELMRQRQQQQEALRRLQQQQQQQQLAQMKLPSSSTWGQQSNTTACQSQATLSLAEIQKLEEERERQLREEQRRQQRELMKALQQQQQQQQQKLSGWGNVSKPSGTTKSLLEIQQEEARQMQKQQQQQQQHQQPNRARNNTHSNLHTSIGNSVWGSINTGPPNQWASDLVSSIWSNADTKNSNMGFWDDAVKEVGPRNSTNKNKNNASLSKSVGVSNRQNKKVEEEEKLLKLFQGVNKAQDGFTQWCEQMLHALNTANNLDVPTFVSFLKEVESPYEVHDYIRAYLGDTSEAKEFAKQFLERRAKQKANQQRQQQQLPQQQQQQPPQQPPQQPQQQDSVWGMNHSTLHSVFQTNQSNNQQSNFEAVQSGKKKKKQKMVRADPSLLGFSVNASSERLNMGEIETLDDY
Experiment: co-IP

binding: binds
Molecule: 4EHP (from UniProt O60573 1-245)

binding: binds
B1: ZNF598 (protein, UniProt Q86UK7 1-904)
chain: MAAAGGAEGRRAALEAAAAAAPERGGGSCVLCCGDLEATALGRCDHPVCYRCSTKMRVLCEQRYCAVCREELRQVVFGKKLPAFATIPIHQLQHEKKYDIYFADGKVYALYRQLLQHECPRCPELPPFSLFGDLEQHMRRQHELFCCRLCLQHLQIFTYERKWYSRKDLARHRMQGDPDDTSHRGHPLCKFCDERYLDNDELLKHLRRDHYFCHFCDSDGAQDYYSDYAYLREHFREKHFLCEEGRCSTEQFTHAFRTEIDLKAHRTACHSRSRAEARQNRHIDLQFSYAPRHSRRNEGVVGGEDYEEVDRYSRQGRVARAGTRGAQQSRRGSWRYKREEEDREVAAAVRASVAAQQQEEARRSEDQEEGGRPKKEEAAARGPEDPRGPRRSPRTQGEGPGPKETSTNGPVSQEAFSVTGPAAPGCVGVPGALPPPSPKLKDEDFPSLSASTSSSCSTAATPGPVGLALPYAIPARGRSAFQEEDFPALVSSVPKPGTAPTSLVSAWNSSSSSKKVAQPPLSAQATGSGQPTRKAGKGSRGGRKGGPPFTQEEEEDGGPALQELLSTRPTGSVSSTLGLASIQPSKVGKKKKVGSEKPGTTLPQPPPATCPPGALQAPEAPASRAEGPVAVVVNGHTEGPAPARSAPKEPPGLPRPLGSFPCPTPQEDFPALGGPCPPRMPPPPGFSAVVLLKGTPPPPPPGLVPPISKPPPGFSGLLPSPHPACVPSPATTTTTKAPRLLPAPRAYLVPENFRERNLQLIQSIRDFLQSDEARFSEFKSHSGEFRQGLISAAQYYKSCRDLLGENFQKVFNELLVLLPDTAKQQELLSAHTDFCNREKPLSTKSKKNKKSAWQATTQQAGLDCRVCPTCQQVLAHGDASSHQALHAARDDDFPSLQAIARIIT
